# ± gives the half width of the 95% confidence interval. The two proteases of the assay disagree for many of these sequences.
# Legend:
# [1] = folding stability dG unfold from trypsin proteolysis; higher = more stable
# How it was run: (§1)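 Only designs with AlphaFold2 dimer inter-PAE above 15 were retained; each was a mini-protein under 80 residues with no cysteine, in a PA-tagged cDNA display construct. After digestion with trypsin and chymotrypsin and sequencing, K50 was inferred by Bayesian fitting of counts, and unfolding free energy was derived per protease or combined against a sequence-predicted unfolded-state K50 and a shared folded-state K50.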
# [2] = folding stability dG unfold (combined trypsin and chymotrypsin); higher = more stable
# How it was run: as §1
# [3] = folding stability dG unfold from chymotrypsin proteolysis; higher = more stable
# How it was run: as §1
Sequence,folding stability dG unfold [1] [kcal/mol],folding stability dG unfold [2] [kcal/mol],folding stability dG unfold [3] [kcal/mol]
SAGGMYIVKVKIVNKETGKTIEITLLVPETEEEALEKARELAKKLGLKDVKVEVEIIEIKEDDPAIKKSAGG [r13_682_TrROS_Hall],0.371 ± 0.27,3.35 ± 0.26,3.96 ± 0.14
SAGGSAGGSMKKENKPYIKYLVKIELPGPPILDPKIFKSKEEAEKYAKEIAEKYNVKVEVFEESAGGSAGGS [r12_134_TrMRF],1.25 ± 0.17,2.88 ± 0.16,3.26 ± 0.096
SMIKLEIVIKGLSEEEVEELAEELARKLAEELGLKIEVKVERFKRKDGKEVYVRIEVTIEVRDEDGKLLPSA [r9_21_TrROS_Hall],2.58 ± 0.11,4.56 ± 0.12,4.96 ± 0.12
VDLNVTAEQIGDKEYRLTVTFPESGKSFTFSVPGSLEEAKEAALKRIKEEYPELDVTSIDFTPVPAPPDLVS [r1_80_JUSTAS],3.4 ± 0.1,5.37 ± 0.14,5.44 ± 0.091
SAGMMVKITEVKFSESPLIRKNGSSLSTEKVYTATFTFQDEKGNLTPVKATFSSREELEKYVEEILKKSSAG [r14_36_JUSTAS],0.673 ± 0.045,2.3 ± 0.065,2.76 ± 0.033
SAIEELAKKLAEELGLEVEVVEVEKEGDRVYVRIKVKVDGKLVYVRIEIERVDEEEGKVEIRIVEVEPVSAG [r14_387_TrROS_Hall],2.93 ± 0.11,4.56 ± 0.27,5.04 ± 0.13
SAGGSAGGSAGGSMVTVPLTSPEEAEALVAAGVPITLPDGSPVPVTEVEFLPDGSLRIGVSAGGSAGGSAGG [r11_48_JUSTAS],-1.07 ± 0.37,0.834 ± 0.056,1.33 ± 0.057
SAGGAEITINVTVTYDPETNVLYIEMTATVYDPETKEFYEVKVRLKLVNGKLYIVSVEIRKLPPPEKSAGGS [r8_384_TrROS_Hall],2.8 ± 0.099,> 6,6.03 ± 0.32
